Our source for the binding values is article PMC7069958, “Multi-level and lineage-specific interactomes of the Hox transcription factor Ubx contribute to its functional specificity”.

These are yes or no findings as the source states them, for the method shown. In cells and extracts the contact can be indirect. Here binding means that the protein was enriched with, or labelled near, the bait; the list need not be complete.

First the molecules themselves.
B1: Nucampholin (Ncm), endogenous (protein, UniProt Q9VJ87 1-1330)
chain: MGESDAESDSSSNSSSSDTSSGSDSDARSESSSSESSGREEEEAKQEESAKDAKKTDDTDRGEKRAKERDAGQDEQPTEQKKTPAAEPRSERQHISHSAGVEKQQEEAVAAAEAESEKLNEAKKVETPVQRKEEAEASSVTKELNSPKAQEENAARELEERRKDEEQPVTTNGSSKESPVEAAAETVKPPTADHIEEGEITDKDEDDLPTKEEKKAVASKSPPKETQRKQSRSPDGKRRRPRSSSRSPSPSSRRRRRSRSKGSRTRSRSKSPIRRRSNSLERRRVERQRRHEERDKRDEERAKEREKRHQKGEPTSSRRRDDSREKKRSPERKRDRSSSTPKSKSSKTPRHTETTETNADNETVTEPAAKITERQRKTVDVLTSRTGGAYIPPAKLRMMQSQITDKSSAAYQRIAWEALKKSIHGYINKVNVTNIAIITRELLRENIVRGRGLLSRSIIQAQAASPTFTHVYAALVSIINSKFPNIGELLLKRLVIQFRRAFRRNDKMVCMSATRFIGHLVNQRVAHEILALEILTLLVETPTDDSVEVAIAFLKECGMKLTEVSSKGIGAIFEMLRNILHEGKLDKRVQYMIEVLFQIRKDGFKDHQAVVPELELVEEDDQFTHLMMLDEATETEDILNVFKFDDNYAENEDKYKGLSREILGSDDGSSSGSGSGSDSDSDSDGESGSDAEKKAEAGDIIDSTETNLIALRRTIYLTINSSLDYEECAHKLMKMQLKPGQEIELCHMFLDCCAEQRTYEKFYGLLAQRFCNINKIYIPPFEEIFKDTYQTTHRLDTNRLRNVSKFFAHLLFTDAISWDVLECIQLNEDDTTSSSRIFIKILFQELAEYMGLGKLNAKLKDDVLVESIAGLFPKDNPRNTRFSINFFTSIGLGGLTDDLRRFLKNAPKSVPAINAEILANAGGNPFRDGSAPAGNTKVAPSSSSSSSSSSDTDSEDSSEEDSSSDSSSESSSSDSSSEPKKKRKRKDKDKKKSKKATKEKSKKTKNKKKKKKAEKEQEKEKEKQRKSKKEKEKDKKRKKEEKKAAKKKSKHRRKSQESSDSSGSEDSDKSTSESSDSSNSSSDESDAEPQAKIKRQEHVEKNKFRGRTQDSDEFNLEGPGSKNRFQPNGNGQRRRDNSTGRERNRENSSYDRERNRGNSSYDRERKRGNSSYDRERNRESSYDKERKNRNAVAHDRQRKRDRSRSYERPTIRENSAPREKRMESSRSEKDSRRGDRSSRNERSDRGERSDRGERSDRGERSDRGERSDRGERSDRGERSDREKERSRAKERERDRDRDLKGQRERKRERDDGSRDRSRRERSSRRSKGRS
B2: small ribonucleoprotein particle U1 subunit 70 K (snRNPU1-70K), endogenous (protein, UniProt P17133 1-448)
chain: MTQYLPPNLLALFAAREPIPFMPPVDKLPHEKKSRGYLGVAKFMADFEDPKDTPLPKTVETRQERLERRRREKAEQVAYKLEREIALWDPTEIKNATEDPFRTLFIARINYDTSESKLRREFEFYGPIKKIVLIHDQESGKPKGYAFIEYEHERDMHAAYKHADGKKIDSKRVLVDVERARTVKGWLPRRLGGGLGGTRRGGNDVNIKHSGREDNERERERYRLEREREDREGPGRGGGSNGLDARPGRGFGAERRRSRSRERRDRERDRGRGAVASNGRSRSRSRERRKRRAGSRERYDEFDRRDRRDRERERDRDREREKKKKRSKSRERESSRERRERKRERRDRERGTGSGGDVKERKPDFRDMDVIKIKEEPVDDGYPTFDYQNATIKREIDDEDEEKYRPPPAHHNMFSVPPPPILGRGNASTNPNPDNGQQSSGDPSWWRQ
B3: Bx-42, endogenous (protein, UniProt P39736 1-547)
chain: MSLSSLLPTPTNAIWDREDERRLVARGAPKIGALVSAKIAAPPYGQRKDWVPHTDADFGDGGAFPEIHVAQYPLGLGAPGNVGKKSDALAVRLDDKGKVKYDAIARQGHGKDKIVYSSISQLLPAEVLAEDADELQRPDEETVMETTEETRLALEKLTNQKITSALPVRHAQKAGPAQYIRYTPSQQGDTFNSGAKQRVIRMVEAQLDPMEPPKFRINKKIPRGPPSPPAPVLHSPSRKVTVKEQKEWKIPPCISNWKNAKGYTIPLDKRLAADGRGLQQVHINEKFAKMAEALYIADRKAREAVEARSQLEKKLAQKEKEKKEDMLRMMAQRAREERAGLRNPEAAEPSGSGATGSEVRERNDLRAERQRERQRDRNLQRAAPEKRSKLQKERERDISEQIALGLPAKSAGNGETLFDQRLFNTTKGMDSGYGDDEAYNVYDKPWRDSNTLGAHIYRPSKQADSDNYGGDLDAIVNTKRFVPDKQFSGASKEAAAGQRSGPVEFEKEEDPFGLDQFLNMAKKAPKRAEEKNNERSSHSDRKRSKRD
B4: Tinman (Tin), endogenous (protein, UniProt P22711 1-416)
chain: MLQHHQQQAQSGGYYDHYTQSPSPGSLTNADALNTTPFSVKDILNMVNQTEAYEGSYGHIDGAATASALFAAGEYQNPHQYLNHQQHQQSELPIPQQQLHHQHLDDGATTSSSLSPLLPPPPHQLYGGYQDYGMPAHMFQHHHGHPHQSFQHSASAYNMSASQFYAGASATAYQTPATYNYNYAGSGEVYGGATPSAVGIKSEYIPTPYVTPSPTLDLNSSAEVDSLQAPTQKLCVNPLSQRLMETASNSSSLRSIYGSDEGAKKKDNSQVTSSRSELRKNSISGNSNPGSNSGSTKPRMKRKPRVLFSQAQVLELECRFRLKKYLTGAEREIIAQKLNLSATQVKIWFQNRRYKSKRGDIDCEGIAKHLKLKSEPLDSPTSLPPPIPNHVMWPPTMQQSQQQQQHHAQQQQMQHM
B5: Brick a brac 2 (Bab2), endogenous (protein, UniProt Q9W0K4 1-1067)
chain: MDMTKQIVDFEIKSELIGEIDQFEASDYTMAPPEEPKMVEESPQLGHLEDQNRKYSPEREVEPTLQDPSEVVDQMQKDTESVGEVKSPEKDVETELVKSKASPMNDQALTPPPRPLTSSEVVGLRDPEHTELRMCLEAKKSRSLPVSPQPQPNLKLAGSALFEFGQRSSPVETKIKTNPETKPPRRKIVPPSGEGQQFCLRWNNYQSNLTNVFDELLQSESFVDVTLSCEGHSIKAHKMVLSACSPYFQALFYDNPCQHPIIIMRDVSWSDLKALVEFMYKGEINVCQDQINPLLKVAETLKIRGLAEVSAGRGEGGASALPMSAFDDEDEEEELASATAILQQDGDADPDEEMKAKRPRLLPEGVLDLNQRQRKRSRDGSYATPSPSLQGGESEISERGSSGTPGQSQSQPLAMTTSTIVRNPFASPNPQTLEGRNSAMNAVANQRKSPAPTATGHSNGNSGAAMHSPPGGVAVQSALPPHMAAIVPPPPSAMHHHAQQLAAQHQLAHSHAMASALAAAAAGAGAAGAGGAGSGSGSGASAPTGGTGVAGSGAGAAVGSHHDDMEIKPEIAEMIREEERAKMIESGGHGGWMGAAAAATGAASVAADSYQYQLQSMWQKCWNTNQQNLVQQLRFRERGPLKSWRPEAMAEAIFSVLKEGLSLSQAARKFDIPYPTFVLYANRVHNMLGPSLDGGADPRPKARGRPQRILLGMWPEELIRSVIKAVVFRDYREIKEDMSAHQYANGQGHGTYIGGGTTTNGYHSAAAAKLAAQNAALAPPDAGSPLSSMTETLRRQILSQQQQHQQHHQQQAHHQQQPSHHQQQSPHAQSMNMYKSPAYLQRSEIEDQVSAAAAVAAAAAKHQQQQGERRGSENLPDLSALGLMGLPGLNVMPSRGSGGGSGGAAPNSAASYARELSRERERDRERERERELSRQYGSQSRGSSSGSGSAKSLTASQRPGAASPYSAAHYAKHQASAYNKRFLESLPAGIDLEAFANGLLQKSVNKSPRFEDFFPGPGQDMSELFANPDASAAAAAAAYAPPGAIRESPLMKIKLEQQHATELPHED
B6: Polycomb (Pc), endogenous (protein, UniProt P26017 1-390)
chain: MTGRGKGSKGKLGRDNATDDPVDLVYAAEKIIQKRVKKGVVEYRVKWKGWNQRYNTWEPEVNILDRRLIDIYEQTNKSSGTPSKRGIKKKEKEPDPEPESEEDEYTFTENDVDTHQATTSSATHDKESKKEKKHHHHHHHHHHIKSERNSGRRSESPLTHHHHHHHHESKRQRIDHSSSSNSSFTHNSFVPEPDSNSSSSEDQPLIGTKRKAEVLKESGKIGVTIKTSPDGPTIKPQPTQQVTPSQQQPFQDQQQAEKIASEAATQLKSEQQATPLATEAINTTPAESGAEEEEVANEEGNQQAPQVPSENNNIPKPCNNLAINQKQPLTPLSPRALPPRFWLPAKCNISNRVVITDVTVNLETVTIRECKTERGFFRERDMKGDSSPVA

The first experiment concerns the target myc-BirA*-Ubx wild type fusion (mB*Ubx^WT) (Drosophila). Briefly: proximity labelling; twi-BioID: mB* fusion proteins expressed in the mesoderm (twi-GAL4), stage 10-13 embryos (5-8 h AEL); nuclear extract, streptavidin affinity purification, mass spectrometry; enrichment against mB*nlsGFP in at least 2 of 4 replicates.
For B1, the binding result is “binds”.

Turning to B2, the binding entry is “binds”. Turning to B3, the binding result was “binds”. Still for that read-out and setting: next, B4: “binds”; B5: “binds”.

For the next experiment the target is unchanged. Description: proximity labelling; sca-BioID: mB* fusion proteins expressed in the neuroectoderm (sca-GAL4), stage 9-11 embryos (2.5-5 h AEL); nuclear extract, streptavidin affinity purification, mass spectrometry; enrichment against mB*nlsGFP in at least 2 of 4 replicates.
In the case of B6, the binding result is “binds”.
